From the supplement of paper PMC12067093, “Discovery and optimisation of a covalent ligand for TRIM25 and its application to targeted protein ubiquitination” (Chemical Science, 2025)
The list shows a part of the results.

The chains behind the UniProt entries cited, without tags or fusion partners. Where a name states a change or a piece, a line headed by the entry shows the natural chain unless it says otherwise.
UniProt Q13098: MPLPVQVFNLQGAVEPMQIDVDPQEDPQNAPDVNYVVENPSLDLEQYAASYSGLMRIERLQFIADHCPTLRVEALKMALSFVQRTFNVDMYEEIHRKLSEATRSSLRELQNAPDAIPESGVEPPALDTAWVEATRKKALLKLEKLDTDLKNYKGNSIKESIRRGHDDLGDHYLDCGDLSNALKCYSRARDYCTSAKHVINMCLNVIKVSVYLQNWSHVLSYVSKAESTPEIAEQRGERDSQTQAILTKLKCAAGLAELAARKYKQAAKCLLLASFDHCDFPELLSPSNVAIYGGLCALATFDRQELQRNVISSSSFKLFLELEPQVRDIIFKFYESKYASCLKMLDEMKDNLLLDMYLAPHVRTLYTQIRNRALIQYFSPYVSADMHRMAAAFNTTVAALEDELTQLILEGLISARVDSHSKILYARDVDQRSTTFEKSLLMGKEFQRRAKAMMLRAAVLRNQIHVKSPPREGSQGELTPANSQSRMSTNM
UniProt P00390: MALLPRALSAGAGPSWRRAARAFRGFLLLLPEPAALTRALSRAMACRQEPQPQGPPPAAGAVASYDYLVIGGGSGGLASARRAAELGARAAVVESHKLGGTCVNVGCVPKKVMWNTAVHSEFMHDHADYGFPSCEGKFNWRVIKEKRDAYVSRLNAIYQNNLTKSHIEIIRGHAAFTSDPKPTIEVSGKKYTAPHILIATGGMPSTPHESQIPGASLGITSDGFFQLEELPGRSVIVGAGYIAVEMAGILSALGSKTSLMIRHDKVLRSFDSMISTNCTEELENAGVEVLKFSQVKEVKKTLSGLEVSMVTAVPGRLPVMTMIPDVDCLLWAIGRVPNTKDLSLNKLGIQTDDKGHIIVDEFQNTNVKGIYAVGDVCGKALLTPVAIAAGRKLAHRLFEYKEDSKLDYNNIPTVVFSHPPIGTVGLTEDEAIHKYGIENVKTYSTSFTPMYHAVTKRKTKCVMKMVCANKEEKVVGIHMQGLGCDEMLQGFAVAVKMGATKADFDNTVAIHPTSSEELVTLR
UniProt Q13889: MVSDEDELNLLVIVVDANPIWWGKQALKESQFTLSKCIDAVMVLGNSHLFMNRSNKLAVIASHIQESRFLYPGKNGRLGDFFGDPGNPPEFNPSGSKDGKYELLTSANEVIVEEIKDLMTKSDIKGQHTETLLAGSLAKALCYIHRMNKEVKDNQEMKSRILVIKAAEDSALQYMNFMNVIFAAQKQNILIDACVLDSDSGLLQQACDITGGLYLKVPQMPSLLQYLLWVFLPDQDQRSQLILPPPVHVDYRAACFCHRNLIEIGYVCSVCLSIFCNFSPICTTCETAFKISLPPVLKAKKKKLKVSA
UniProt Q8WUA4: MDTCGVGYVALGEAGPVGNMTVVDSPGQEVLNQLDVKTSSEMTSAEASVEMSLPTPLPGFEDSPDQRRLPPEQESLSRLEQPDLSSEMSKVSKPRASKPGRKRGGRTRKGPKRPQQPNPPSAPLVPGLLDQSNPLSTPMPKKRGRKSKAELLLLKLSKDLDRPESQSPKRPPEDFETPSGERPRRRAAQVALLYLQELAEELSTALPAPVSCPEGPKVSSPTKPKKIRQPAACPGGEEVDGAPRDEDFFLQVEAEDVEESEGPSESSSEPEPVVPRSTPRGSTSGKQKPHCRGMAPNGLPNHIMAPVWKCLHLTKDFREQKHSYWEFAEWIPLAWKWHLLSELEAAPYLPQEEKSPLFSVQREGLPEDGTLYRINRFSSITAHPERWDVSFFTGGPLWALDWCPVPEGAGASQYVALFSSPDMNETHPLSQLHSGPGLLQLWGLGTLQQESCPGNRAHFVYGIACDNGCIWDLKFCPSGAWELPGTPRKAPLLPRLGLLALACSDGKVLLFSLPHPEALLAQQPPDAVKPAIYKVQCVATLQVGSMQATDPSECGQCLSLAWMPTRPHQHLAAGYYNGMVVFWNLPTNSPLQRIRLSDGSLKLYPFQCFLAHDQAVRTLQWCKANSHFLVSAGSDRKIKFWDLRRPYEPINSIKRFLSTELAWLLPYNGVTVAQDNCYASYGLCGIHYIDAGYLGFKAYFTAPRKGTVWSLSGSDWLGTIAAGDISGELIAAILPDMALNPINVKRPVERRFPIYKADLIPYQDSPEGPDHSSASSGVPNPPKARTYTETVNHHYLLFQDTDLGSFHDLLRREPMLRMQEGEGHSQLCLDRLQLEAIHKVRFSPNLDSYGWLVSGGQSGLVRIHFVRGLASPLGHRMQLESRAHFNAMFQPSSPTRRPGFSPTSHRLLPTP
UniProt P25098: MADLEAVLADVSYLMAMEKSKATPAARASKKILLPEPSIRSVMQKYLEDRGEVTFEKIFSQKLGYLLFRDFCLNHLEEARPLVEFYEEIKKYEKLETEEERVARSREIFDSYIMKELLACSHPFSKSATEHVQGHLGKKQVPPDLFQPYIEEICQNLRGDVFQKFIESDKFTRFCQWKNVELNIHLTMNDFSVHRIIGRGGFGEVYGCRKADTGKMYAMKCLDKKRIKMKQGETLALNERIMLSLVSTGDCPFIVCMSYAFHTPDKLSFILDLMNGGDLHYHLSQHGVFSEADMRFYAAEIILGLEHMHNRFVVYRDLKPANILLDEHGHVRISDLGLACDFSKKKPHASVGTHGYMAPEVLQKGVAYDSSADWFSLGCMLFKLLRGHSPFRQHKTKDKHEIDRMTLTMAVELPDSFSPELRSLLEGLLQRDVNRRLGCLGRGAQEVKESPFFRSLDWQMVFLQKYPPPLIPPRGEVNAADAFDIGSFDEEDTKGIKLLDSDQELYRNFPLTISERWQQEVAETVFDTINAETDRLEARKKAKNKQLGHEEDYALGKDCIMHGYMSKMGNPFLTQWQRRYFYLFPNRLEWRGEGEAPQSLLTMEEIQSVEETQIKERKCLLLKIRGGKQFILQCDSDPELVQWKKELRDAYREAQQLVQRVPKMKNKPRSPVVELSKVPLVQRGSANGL
UniProt P40939: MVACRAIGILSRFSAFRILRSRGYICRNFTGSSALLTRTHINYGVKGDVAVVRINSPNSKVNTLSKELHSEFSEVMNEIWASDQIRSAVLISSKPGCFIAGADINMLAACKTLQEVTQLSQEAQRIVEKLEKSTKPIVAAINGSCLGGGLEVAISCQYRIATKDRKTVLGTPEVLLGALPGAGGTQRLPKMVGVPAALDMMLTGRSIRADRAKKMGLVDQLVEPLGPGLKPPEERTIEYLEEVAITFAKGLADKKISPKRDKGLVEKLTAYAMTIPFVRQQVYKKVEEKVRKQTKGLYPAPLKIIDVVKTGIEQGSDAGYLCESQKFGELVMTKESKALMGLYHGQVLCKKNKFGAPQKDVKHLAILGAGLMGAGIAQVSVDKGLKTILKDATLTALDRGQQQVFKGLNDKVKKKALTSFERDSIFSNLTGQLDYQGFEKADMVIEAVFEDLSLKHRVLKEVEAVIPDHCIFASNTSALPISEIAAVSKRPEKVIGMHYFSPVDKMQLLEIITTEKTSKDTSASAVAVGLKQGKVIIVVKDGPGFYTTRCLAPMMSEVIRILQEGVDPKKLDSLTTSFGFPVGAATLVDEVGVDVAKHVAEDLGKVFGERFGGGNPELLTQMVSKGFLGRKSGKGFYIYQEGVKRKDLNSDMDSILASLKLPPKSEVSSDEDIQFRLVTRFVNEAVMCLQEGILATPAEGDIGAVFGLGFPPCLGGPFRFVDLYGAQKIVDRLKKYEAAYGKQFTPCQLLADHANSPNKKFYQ
UniProt O00178: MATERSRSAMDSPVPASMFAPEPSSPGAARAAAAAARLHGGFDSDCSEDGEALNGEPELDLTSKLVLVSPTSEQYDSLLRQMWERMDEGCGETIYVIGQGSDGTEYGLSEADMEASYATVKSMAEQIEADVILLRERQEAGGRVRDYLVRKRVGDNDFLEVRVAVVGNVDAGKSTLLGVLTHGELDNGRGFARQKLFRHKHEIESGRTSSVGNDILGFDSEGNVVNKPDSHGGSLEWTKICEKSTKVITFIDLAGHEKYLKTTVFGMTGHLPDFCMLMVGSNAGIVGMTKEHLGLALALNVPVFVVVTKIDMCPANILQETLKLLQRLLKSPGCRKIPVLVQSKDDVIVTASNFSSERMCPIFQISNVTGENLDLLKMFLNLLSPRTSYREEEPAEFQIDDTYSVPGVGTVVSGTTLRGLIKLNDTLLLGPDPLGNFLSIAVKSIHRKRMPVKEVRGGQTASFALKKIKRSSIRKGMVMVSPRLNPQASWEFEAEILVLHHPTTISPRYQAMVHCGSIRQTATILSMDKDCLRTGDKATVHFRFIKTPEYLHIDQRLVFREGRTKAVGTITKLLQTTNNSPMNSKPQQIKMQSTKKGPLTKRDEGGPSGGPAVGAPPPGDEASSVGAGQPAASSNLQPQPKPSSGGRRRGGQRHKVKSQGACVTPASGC
UniProt Q12789: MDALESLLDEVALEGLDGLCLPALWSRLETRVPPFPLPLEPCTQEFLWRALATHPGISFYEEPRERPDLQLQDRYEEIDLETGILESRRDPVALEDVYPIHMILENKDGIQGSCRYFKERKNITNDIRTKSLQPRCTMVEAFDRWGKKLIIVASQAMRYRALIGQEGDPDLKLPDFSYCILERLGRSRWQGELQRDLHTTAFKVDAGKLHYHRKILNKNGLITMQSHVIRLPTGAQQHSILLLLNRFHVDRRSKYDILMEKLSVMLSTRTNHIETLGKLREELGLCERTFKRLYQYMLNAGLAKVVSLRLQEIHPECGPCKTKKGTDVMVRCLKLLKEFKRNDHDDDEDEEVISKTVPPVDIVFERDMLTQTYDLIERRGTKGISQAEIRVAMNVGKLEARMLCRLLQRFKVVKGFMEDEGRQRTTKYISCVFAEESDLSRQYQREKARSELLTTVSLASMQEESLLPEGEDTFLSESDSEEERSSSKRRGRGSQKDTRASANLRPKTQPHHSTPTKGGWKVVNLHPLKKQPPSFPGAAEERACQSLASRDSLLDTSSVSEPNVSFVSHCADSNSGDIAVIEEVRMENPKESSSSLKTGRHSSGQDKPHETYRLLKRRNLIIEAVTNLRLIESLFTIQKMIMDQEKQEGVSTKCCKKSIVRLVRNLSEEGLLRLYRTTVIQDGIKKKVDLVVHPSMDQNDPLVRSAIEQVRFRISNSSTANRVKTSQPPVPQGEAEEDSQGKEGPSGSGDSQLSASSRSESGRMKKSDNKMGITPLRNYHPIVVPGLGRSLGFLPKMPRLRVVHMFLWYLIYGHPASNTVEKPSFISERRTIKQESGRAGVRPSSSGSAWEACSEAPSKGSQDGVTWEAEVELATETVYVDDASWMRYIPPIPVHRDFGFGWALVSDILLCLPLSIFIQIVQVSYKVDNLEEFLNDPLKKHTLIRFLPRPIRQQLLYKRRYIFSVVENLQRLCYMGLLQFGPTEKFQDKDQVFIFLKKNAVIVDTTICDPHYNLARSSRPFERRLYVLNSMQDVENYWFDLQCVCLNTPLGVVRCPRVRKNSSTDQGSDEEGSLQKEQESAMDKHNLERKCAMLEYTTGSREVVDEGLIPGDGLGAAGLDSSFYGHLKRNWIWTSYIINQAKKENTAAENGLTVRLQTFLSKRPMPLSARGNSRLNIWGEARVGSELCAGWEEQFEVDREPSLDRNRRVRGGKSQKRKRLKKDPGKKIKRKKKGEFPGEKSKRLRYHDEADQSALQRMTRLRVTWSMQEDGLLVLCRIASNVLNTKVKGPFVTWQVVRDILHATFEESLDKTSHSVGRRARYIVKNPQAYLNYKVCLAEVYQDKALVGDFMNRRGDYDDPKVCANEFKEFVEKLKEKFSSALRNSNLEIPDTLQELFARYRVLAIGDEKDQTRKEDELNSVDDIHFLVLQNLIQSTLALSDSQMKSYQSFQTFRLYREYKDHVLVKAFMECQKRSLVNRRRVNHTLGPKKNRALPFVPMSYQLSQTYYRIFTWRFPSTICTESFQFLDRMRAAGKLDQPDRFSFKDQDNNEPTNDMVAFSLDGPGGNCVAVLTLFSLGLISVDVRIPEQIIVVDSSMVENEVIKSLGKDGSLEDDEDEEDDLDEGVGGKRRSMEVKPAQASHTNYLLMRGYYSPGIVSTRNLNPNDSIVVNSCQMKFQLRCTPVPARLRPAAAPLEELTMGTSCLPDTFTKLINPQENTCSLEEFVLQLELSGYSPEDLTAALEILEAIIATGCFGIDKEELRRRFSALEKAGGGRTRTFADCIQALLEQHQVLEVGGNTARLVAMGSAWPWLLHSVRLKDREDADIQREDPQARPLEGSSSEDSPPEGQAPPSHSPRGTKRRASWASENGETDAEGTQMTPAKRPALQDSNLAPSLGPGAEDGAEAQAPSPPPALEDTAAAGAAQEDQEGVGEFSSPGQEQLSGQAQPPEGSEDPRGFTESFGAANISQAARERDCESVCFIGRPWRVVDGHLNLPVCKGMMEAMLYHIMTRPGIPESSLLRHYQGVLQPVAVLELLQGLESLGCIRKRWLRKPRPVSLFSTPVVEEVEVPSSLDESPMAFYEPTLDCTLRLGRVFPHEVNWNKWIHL

Compound: CC1Cc2ccccc2N1C(=O)C1CCCN(C1)C(=O)CCl (mixture of isomers) [TRIM25 ligand 11 (diastereomer mixture)]
Assay: probe-labelled cysteine peptide fold change vs DMSO (competition) (log2 fold change); higher = less target engagement (more negative = stronger competition)
Details: THP-1, incubation time: 4 h
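Further: competitive chemoproteomic profiling in live THP-1 cells with an iodoacetamide desthiobiotin (IA-DTB) probe, comparing probe-labelled peptide intensities in compound-treated cells against DMSO-treated controls.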

| Target | probe-labelled cysteine peptide fold change (10 µM) | probe-labelled cysteine peptide fold change (50 µM) |
| --- | --- | --- |
| GSTCD_Q8NEC7_466_IVDFCSGGGHVGIVLAHMLPSCQVTLIENK (UniProt Q8NEC7) | -0.0803 | 0.0627 |
| GPS1_Q13098_67_LQFIADHCPTLR (UniProt Q13098) | 0.126 | 0.0621 |
| GRN_P28799_165_VHCCPHGAFCDLVHTR (UniProt P28799) | 0.103 | 0.382 |
| GTF2B_Q00403_15_VTCPNHPDAILVEDYR (UniProt Q00403) | -0.116 | -0.0934 |
| GSR_P00390_134_VMWNTAVHSEFMHDHADYGFPSCEGK (UniProt P00390) | 0.144 | 0.00373 |
| GTF2H3_Q13889_255_AACFCHR (UniProt Q13889) | 0.0404 | 0.171 |
| GRK6_P43250_425_SLCSQLLCK (UniProt P43250) | -0.0327 | -0.232 |
| GRPEL2_Q8TAA5_87_AIADCENIR (UniProt Q8TAA5) | 0.225 | 0.00166 |
| GTF3C2_Q8WUA4_469_AHFVYGIACDNGCIWDLK (UniProt Q8WUA4) | 0.207 | 0.215 |
| GRPEL1_Q9HAV7_108_LYGIQAFCK (UniProt Q9HAV7) | -0.247 | -0.258 |
| GTF2I_P78347_903_ITINPGCVVVDGMPPGVSFK (UniProt P78347) | 0.0306 | -0.0743 |
| GSDMD_P57764_467_MCALYASLALLSGLSQEPH (UniProt P57764) | 0.104 | 0.0802 |
| HARS2_P49590_274_IGDYVQCHGGVSLVEQMFQDPR (UniProt P49590) | -0.114 | -0.207 |
| GTF3A_Q92664_191_AHEGYVCQK (UniProt Q92664) | 0.0464 | 0.122 |
| GRK2_P25098_120_ELLACSHPFSK (UniProt P25098) | -0.00362 | -0.0684 |
| HADHA_P40939_550_CLAPMMSEVIR (UniProt P40939) | 0.111 | 0.162 |
| GRWD1_Q9BQ67_11_TCETGEPMEAESGDTSSEGPAQVYLPGR (UniProt Q9BQ67) | 0.0545 | -0.238 |

Single records, as listed above. Values in the order: probe-labelled cysteine peptide fold change (10 µM)	probe-labelled cysteine peptide fold change (50 µM)
HADHA_P40939_550_CLAPMMSEVIR (UniProt P40939) is listed as 0.111	0.162
GRPEL1_Q9HAV7_108_LYGIQAFCK (UniProt Q9HAV7) is listed as -0.247	-0.258

The results go on:

| Target | probe-labelled cysteine peptide fold change (10 µM) | probe-labelled cysteine peptide fold change (50 µM) |
| --- | --- | --- |
| GTF2H3_Q13889_142_ALCYIHR (UniProt Q13889) | 0.00371 | 0.0325 |
| GPSM1_Q86YR5_497_APSSDEECFFDLLTK (UniProt Q86YR5) | -0.105 | 0.0081 |
| GSTM3_P21266_178_CLDEFPNLK (UniProt P21266) | -0.0117 | -0.128 |
| HAGH_Q16775_157+164_CLATPCHTSGHICYFVSK (UniProt Q16775) | 0.3 | -0.0168 |
| GPS1_Q13098_175_RGHDDLGDHYLDCGDLSNALK (UniProt Q13098) | 0.0394 | -0.132 |
| GSR_P00390_107_LGGTCVNVGCVPK (UniProt P00390) | -9.54e-05 | 0.0311 |
| GTF3C2_Q8WUA4_828_MQEGEGHSQLCLDR (UniProt Q8WUA4) | -0.014 | -0.152 |
| GTPBP1_O00178_360_MCPIFQISNVTGENLDLLK (UniProt O00178) | 0.138 | -0.0504 |
| GSTCD_Q8NEC7_335_CGIQFLHLPK (UniProt Q8NEC7) | -0.116 | -0.00154 |
| GTPBP1_O00178_515_YQAMVHCGSIR (UniProt O00178) | -0.0472 | 0.0726 |
| GTF3C1_Q12789_1999_VVDGHLNLPVCK (UniProt Q12789) | 0.069 | -0.0366 |
| GSN_P06396_672_LFACSNK (UniProt P06396) | 0.15 | 0.113 |
| GTF2B_Q00403_37_AGDMICPECGLVVGDR (UniProt Q00403) | 0.000693 | 0.073 |
| GTF3C1_Q12789_136_CTMVEAFDR (UniProt Q12789) | 0.127 | 0.078 |
| H6PD_O95479_623_CVPLSDPESNFQGLQAHLLQHVR (UniProt O95479) | -0.0106 | 0.195 |
| GRK2_P25098_72_DFCLNHLEEARPLVEFYEEIKK (UniProt P25098) | 0.0128 | 0.101 |
